Source: patent US20250074896A1, “ARYLTETRAHYDROPYRIDAZINE DERIVATIVE OR SALT THEREOF AND INSECTICIDAL AGENT CONTAINING THE COMPOUND AND METHOD FOR USING SAME” (NIHON NOHYAKU CO., LTD., priority 2021, published 2025)
Some of these results come from one statement about several compounds together.

Assays:
[1] = test system: Western Flower Thrips (Frankliniella occidentalis); test: Insecticidal test on western flower thrips (kidney bean leaf pieces, hatched larvae); type: in vivo; conditions: 4 days after the treatment
[2] = test system: Small Brown Planthopper (Laodelphax striatellus); test: Insecticidal test on small brown planthopper (dipped rice seedlings, 3rd-instar larvae); type: in vivo; conditions: rice seedlings dipped 30 seconds, 8 days after inoculation

COC(=O)N1C(=O)C(C(=O)Nc2ccc(Cl)cc2C#N)=C(O)CN1c1ccc(C#N)cc1 [3-454]
A (the mortality rate is 100%): insecticidal efficacy (corrected mortality rate) against western flower thrips ([1]; 50 ppm) | insecticidal efficacy (corrected mortality rate) against western flower thrips ([1]; 500 ppm) | insecticidal efficacy (corrected mortality rate) against small brown planthopper ([2]; 50 ppm) | insecticidal efficacy (corrected mortality rate) against small brown planthopper ([2]; 500 ppm)

N#Cc1ncc(N2CC(O)=C(C(=O)Nc3c(F)cc(F)cc3F)C(=O)N2)cc1Cl [1-228]
A (the mortality rate is 100%): insecticidal efficacy (corrected mortality rate) against western flower thrips ([1]; 500 ppm) | insecticidal efficacy (corrected mortality rate) against small brown planthopper ([2]; 500 ppm)

COC(=O)N1C(=O)C(C(=O)Nc2ccc(F)cc2)=C(O)CN1c1ccc(-c2nnnn2C)nc1 [3-410]
A (the mortality rate is 100%): insecticidal efficacy (corrected mortality rate) against western flower thrips ([1]; 500 ppm) | insecticidal efficacy (corrected mortality rate) against small brown planthopper ([2]; 50 ppm) | insecticidal efficacy (corrected mortality rate) against small brown planthopper ([2]; 500 ppm)

COCCOC(=O)N1C(=O)C(C(=O)Nc2ccc(F)cc2)=C(O)CN1c1ccc(C#N)c(OC)c1 [3-351]
A (the mortality rate is 100%): insecticidal efficacy (corrected mortality rate) against western flower thrips ([1]; 50 ppm) | insecticidal efficacy (corrected mortality rate) against western flower thrips ([1]; 500 ppm) | insecticidal efficacy (corrected mortality rate) against small brown planthopper ([2]; 50 ppm) | insecticidal efficacy (corrected mortality rate) against small brown planthopper ([2]; 500 ppm)

COC(=O)N1C(=O)C(C(=S)Nc2ccccc2F)=C(O)CN1c1ccc(C#N)nc1 [4-91]
A (the mortality rate is 100%): insecticidal efficacy (corrected mortality rate) against western flower thrips ([1]; 50 ppm) | insecticidal efficacy (corrected mortality rate) against western flower thrips ([1]; 500 ppm) | insecticidal efficacy (corrected mortality rate) against small brown planthopper ([2]; 50 ppm) | insecticidal efficacy (corrected mortality rate) against small brown planthopper ([2]; 500 ppm)

CCOC(=O)c1ccc(NC(=S)C2=C(O)CN(c3ccc(C#N)nc3)N(C(=O)OC)C2=O)cc1 [4-76]
A (the mortality rate is 100%): insecticidal efficacy (corrected mortality rate) against western flower thrips ([1]; 500 ppm) | insecticidal efficacy (corrected mortality rate) against small brown planthopper ([2]; 500 ppm)

COC(=O)N1C(=O)C(C(=O)Nc2ccc(F)cc2C)=C(O)CN1c1cnc(C#N)c(C)c1 [3-632]
A (the mortality rate is 100%): insecticidal efficacy (corrected mortality rate) against western flower thrips ([1]; 50 ppm) | insecticidal efficacy (corrected mortality rate) against western flower thrips ([1]; 500 ppm) | insecticidal efficacy (corrected mortality rate) against small brown planthopper ([2]; 50 ppm) | insecticidal efficacy (corrected mortality rate) against small brown planthopper ([2]; 500 ppm)

Cc1cnc(NC(=O)C2=C(O)CN(c3ccc(C(F)(F)F)nc3)NC2=O)s1 [1-126]
A (the mortality rate is 100%): insecticidal efficacy (corrected mortality rate) against western flower thrips ([1]; 500 ppm) | insecticidal efficacy (corrected mortality rate) against small brown planthopper ([2]; 500 ppm)

COC(=O)N1C(=O)C(C(=O)Nc2cccc(OC)c2)=C(O)CN1c1ccc(C#N)cc1 [3-441]
A (the mortality rate is 100%): insecticidal efficacy (corrected mortality rate) against western flower thrips ([1]; 50 ppm) | insecticidal efficacy (corrected mortality rate) against western flower thrips ([1]; 500 ppm) | insecticidal efficacy (corrected mortality rate) against small brown planthopper ([2]; 50 ppm) | insecticidal efficacy (corrected mortality rate) against small brown planthopper ([2]; 500 ppm)

COC(=O)N1C(=O)C(C(=S)NC2CC2)=C(O)CN1c1ccc(C#N)nc1 [4-50]
A (the mortality rate is 100%): insecticidal efficacy (corrected mortality rate) against western flower thrips ([1]; 500 ppm) | insecticidal efficacy (corrected mortality rate) against small brown planthopper ([2]; 50 ppm) | insecticidal efficacy (corrected mortality rate) against small brown planthopper ([2]; 500 ppm)

COC(=O)N1C(=O)C(C(=O)Nc2ccc(F)c(F)c2)=C(O)CN1c1ccc(-c2nnnn2C)nc1 [3-411]
A (the mortality rate is 100%): insecticidal efficacy (corrected mortality rate) against western flower thrips ([1]; 500 ppm) | insecticidal efficacy (corrected mortality rate) against small brown planthopper ([2]; 50 ppm) | insecticidal efficacy (corrected mortality rate) against small brown planthopper ([2]; 500 ppm)

COC(=O)N1C(=O)C(C(=O)Nc2ccc(Cl)nc2)=C(O)CN1c1ccc(C#N)cc1 [3-225]
A (the mortality rate is 100%): insecticidal efficacy (corrected mortality rate) against western flower thrips ([1]; 50 ppm) | insecticidal efficacy (corrected mortality rate) against western flower thrips ([1]; 500 ppm) | insecticidal efficacy (corrected mortality rate) against small brown planthopper ([2]; 50 ppm) | insecticidal efficacy (corrected mortality rate) against small brown planthopper ([2]; 500 ppm)

COC(=O)N1C(=O)C(C(=S)Nc2ccc(C)cc2)=C(O)CN1c1ccc(C#N)nc1 [4-118]
A (the mortality rate is 100%): insecticidal efficacy (corrected mortality rate) against western flower thrips ([1]; 50 ppm) | insecticidal efficacy (corrected mortality rate) against western flower thrips ([1]; 500 ppm) | insecticidal efficacy (corrected mortality rate) against small brown planthopper ([2]; 50 ppm) | insecticidal efficacy (corrected mortality rate) against small brown planthopper ([2]; 500 ppm)

COC(=O)N1C(=O)C(C(=O)Nc2ccc(Cl)nc2)=C(O)CN1c1ccc(Cl)nc1 [3-147]
A (the mortality rate is 100%): insecticidal efficacy (corrected mortality rate) against western flower thrips ([1]; 50 ppm) | insecticidal efficacy (corrected mortality rate) against western flower thrips ([1]; 500 ppm) | insecticidal efficacy (corrected mortality rate) against small brown planthopper ([2]; 50 ppm) | insecticidal efficacy (corrected mortality rate) against small brown planthopper ([2]; 500 ppm)

COC(=O)N1C(=O)C(C(=O)Nc2ccc(C)cn2)=C(O)CN1c1ccc(C#N)cc1 [3-542]
A (the mortality rate is 100%): insecticidal efficacy (corrected mortality rate) against western flower thrips ([1]; 50 ppm) | insecticidal efficacy (corrected mortality rate) against western flower thrips ([1]; 500 ppm) | insecticidal efficacy (corrected mortality rate) against small brown planthopper ([2]; 50 ppm) | insecticidal efficacy (corrected mortality rate) against small brown planthopper ([2]; 500 ppm)

CC(C)COC(=O)N1C(=O)C(C(=O)Nc2ccn(C)n2)=C(O)CN1c1ccc(Br)nc1 [3-651]
A (the mortality rate is 100%): insecticidal efficacy (corrected mortality rate) against western flower thrips ([1]; 50 ppm) | insecticidal efficacy (corrected mortality rate) against western flower thrips ([1]; 500 ppm) | insecticidal efficacy (corrected mortality rate) against small brown planthopper ([2]; 50 ppm) | insecticidal efficacy (corrected mortality rate) against small brown planthopper ([2]; 500 ppm)

COC(=O)N1C(=O)C(C(=O)Nc2ccc3c(c2)OCO3)=C(O)CN1c1cnc(C#N)c(Cl)c1 [3-483]
A (the mortality rate is 100%): insecticidal efficacy (corrected mortality rate) against western flower thrips ([1]; 50 ppm) | insecticidal efficacy (corrected mortality rate) against western flower thrips ([1]; 500 ppm) | insecticidal efficacy (corrected mortality rate) against small brown planthopper ([2]; 50 ppm) | insecticidal efficacy (corrected mortality rate) against small brown planthopper ([2]; 500 ppm)

COCCOC(=O)N1C(=O)C(C(=S)Nc2ccc(F)cc2)=C(O)CN1c1ccc(C#N)nc1 [4-52]
A (the mortality rate is 100%): insecticidal efficacy (corrected mortality rate) against western flower thrips ([1]; 50 ppm) | insecticidal efficacy (corrected mortality rate) against western flower thrips ([1]; 500 ppm) | insecticidal efficacy (corrected mortality rate) against small brown planthopper ([2]; 50 ppm) | insecticidal efficacy (corrected mortality rate) against small brown planthopper ([2]; 500 ppm)

Cc1cc(N2CC(O)=C(C(=O)Nc3cccnc3)C(=O)N2)cnc1C#N [1-139]
A (the mortality rate is 100%): insecticidal efficacy (corrected mortality rate) against western flower thrips ([1]; 500 ppm) | insecticidal efficacy (corrected mortality rate) against small brown planthopper ([2]; 50 ppm) | insecticidal efficacy (corrected mortality rate) against small brown planthopper ([2]; 500 ppm)

COC(=O)N1C(=O)C(C(=O)Nc2cccc(F)c2)=C(O)CN1c1ccc(C#N)cc1 [3-433]
A (the mortality rate is 100%): insecticidal efficacy (corrected mortality rate) against western flower thrips ([1]; 50 ppm) | insecticidal efficacy (corrected mortality rate) against western flower thrips ([1]; 500 ppm) | insecticidal efficacy (corrected mortality rate) against small brown planthopper ([2]; 50 ppm) | insecticidal efficacy (corrected mortality rate) against small brown planthopper ([2]; 500 ppm)

N#Cc1ncc(N2CC(O)=C(C(=O)Nc3cccc(F)c3F)C(=O)N2)cc1Cl [1-229]
A (the mortality rate is 100%): insecticidal efficacy (corrected mortality rate) against western flower thrips ([1]; 50 ppm) | insecticidal efficacy (corrected mortality rate) against western flower thrips ([1]; 500 ppm) | insecticidal efficacy (corrected mortality rate) against small brown planthopper ([2]; 50 ppm) | insecticidal efficacy (corrected mortality rate) against small brown planthopper ([2]; 500 ppm)

N#Cc1ccc(N2CC(O)=C(C(=O)Nc3cccc(F)n3)C(=O)N2)cc1 [1-252]
A (the mortality rate is 100%): insecticidal efficacy (corrected mortality rate) against western flower thrips ([1]; 50 ppm) | insecticidal efficacy (corrected mortality rate) against western flower thrips ([1]; 500 ppm) | insecticidal efficacy (corrected mortality rate) against small brown planthopper ([2]; 50 ppm) | insecticidal efficacy (corrected mortality rate) against small brown planthopper ([2]; 500 ppm)

CNC(=O)C1=C(O)CN(c2ccc(Br)nc2)N(C(=O)OC)C1=O [3-406]
A (the mortality rate is 100%): insecticidal efficacy (corrected mortality rate) against western flower thrips ([1]; 500 ppm) | insecticidal efficacy (corrected mortality rate) against small brown planthopper ([2]; 50 ppm) | insecticidal efficacy (corrected mortality rate) against small brown planthopper ([2]; 500 ppm)

COC(=O)N1C(=O)C(C(=O)Nc2ccc(C#N)cc2)=C(O)CN1c1ccc(C#N)c(OC)c1 [3-500]
A (the mortality rate is 100%): insecticidal efficacy (corrected mortality rate) against western flower thrips ([1]; 50 ppm) | insecticidal efficacy (corrected mortality rate) against western flower thrips ([1]; 500 ppm) | insecticidal efficacy (corrected mortality rate) against small brown planthopper ([2]; 50 ppm) | insecticidal efficacy (corrected mortality rate) against small brown planthopper ([2]; 500 ppm)

O=C(Nc1ccon1)C1=C(O)CN(c2ccc(C(F)(F)F)nc2)NC1=O [1-133]
A (the mortality rate is 100%): insecticidal efficacy (corrected mortality rate) against western flower thrips ([1]; 500 ppm) | insecticidal efficacy (corrected mortality rate) against small brown planthopper ([2]; 500 ppm)

N#Cc1ccc(NC(=O)C2=C(O)CN(c3ccc(Br)nc3)NC2=O)cc1 [1-260]
A (the mortality rate is 100%): insecticidal efficacy (corrected mortality rate) against western flower thrips ([1]; 50 ppm) | insecticidal efficacy (corrected mortality rate) against western flower thrips ([1]; 500 ppm) | insecticidal efficacy (corrected mortality rate) against small brown planthopper ([2]; 50 ppm) | insecticidal efficacy (corrected mortality rate) against small brown planthopper ([2]; 500 ppm)
